From PMC3988052

Target: T1, ATHB17Δ113::MYC-HA (C-terminal MYC-HA fusion of ATHB17Δ113) (Arabidopsis) (UniProt Q8S9N6)
T1 sequence: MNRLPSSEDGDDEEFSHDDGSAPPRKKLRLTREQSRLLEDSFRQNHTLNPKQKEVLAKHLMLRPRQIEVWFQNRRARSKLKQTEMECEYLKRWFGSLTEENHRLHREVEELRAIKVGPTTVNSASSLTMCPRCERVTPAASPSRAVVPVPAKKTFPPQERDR
Assay: co-IP; bead-based co-immunoprecipitation with Luminex on-bead detection; lysates of co-transformed maize leaf protoplasts; capture on anti-MYC magnetic beads, detection with biotinylated anti-CFP and NeutrAvidin R-phycoerythrin; signal above mean + 3 sigma of the negative controls counted as positive

“Zmhdz3 (maize HD-Zip I protein), CFP tagged” was tested, and the binding was “no binding”.

Results are given in words; binding and its absence hold for the method and conditions named. Binding seen in cells or lysates may run through a third protein. Where a sequence is shown, tags or fusion partners need not be part of it.
